Assay results from patent publication US20020016384A1, “Hydrolysis-stable and polymerizable acrylophosphonic acid” (Ivoclar Vivadent AG., priority 2000, published 2002).

Assay: Radical homopolymerization of monomers in water
Details: 20.0 mmol monomer in 10 ml water, 2.0 mol-% 2,2'-azobis(isobutyric acid amidine)dihydrochloride, argon, 65° C., 2 hours

Row | Structure (SMILES) | monomer conversion rate, gravimetrically established [%]
1 | C=C(COCCP(=O)(O)O)C(=O)N(CC)CC [Monomer 3, 2-[4-(dihydroxyphosphoryl)-2-oxabutyl]-acrylic acid diethylamide] | 23.1
2 | C=C(C#N)COCCP(=O)(O)O [Monomer 5, 2-[4-(dihydroxyphosphoryl)-2-oxabutyl]-acrylonitrile] | 13.7
